Results published in the supplement of paper PMC12067093, “Discovery and optimisation of a covalent ligand for TRIM25 and its application to targeted protein ubiquitination” (Chemical Science, 2025).
The list shows a part of the results.

Compound: Cc1cc(ccc1-c1ccccc1)C(=O)N1CCCN(CC1)C(=O)CCl [compound 10]
Assay: probe-labelled cysteine peptide fold change vs DMSO (competition) (log2 fold change); higher = less target engagement (more negative = stronger competition)
Conditions: THP-1, incubation time: 4 h
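Also: competitive profiling in live THP-1 cells: cysteine peptides tagged with an iodoacetamide desthiobiotin (IA-DTB) probe, intensity after compound treatment relative to DMSO-treated cells.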

Row | Target | probe-labelled cysteine peptide fold change (10 µM) | probe-labelled cysteine peptide fold change (50 µM)
1 | EEF2_P13639_651_KIWCFGPDGTGPNILTDITK (UniProt P13639) | -0.124 | -0.567
2 | EFL1_Q7Z2Z2_124_ICDGCIIVVDAVEGVCPQTQAVLR (UniProt Q7Z2Z2) | -0.526 | -0.04
3 | EEF2_P13639_693_EGALCEENMR (UniProt P13639) | -0.222 | -0.128
4 | EEF2_P13639_651_IWCFGPDGTGPNILTDITK (UniProt P13639) | 0.0628 | 0.112
5 | EDEM1_Q92611_529_CGYATLHHVIDK (UniProt Q92611) | 0.0934 | 0.191
6 | EEF1A1_P68104_234_DGNASGTTLLEALDCILPPTRPTDKPLRLPLQDVYK (UniProt P68104) | -0.124 | -0.435
7 | EIF2A_Q9BY44_366_LISKPVASDSTYFAWCPDGEHILTATCAPR (UniProt Q9BY44) | 0.0449 | -0.205
8 | EIF2B3_Q9NR50_206_FHTGLVDAHLYCLKK (UniProt Q9NR50) | -0.139 | -0.897
9 | EFL1_Q7Z2Z2_23_NICVLAHVDHGK (UniProt Q7Z2Z2) | 0.0879 | 0.0694
10 | EIF3A_Q14152_160_QCLDLLR (UniProt Q14152) | 0.229 | 0.391
11 | ECSIT_Q9BQ95_299_CVYYHILR (UniProt Q9BQ95) | -0.0107 | 0.0148
12 | EEF1A2_Q05639_326_GNVCGDSK (UniProt Q05639) | -0.272 | -0.14
13 | EHMT2_Q96KQ7_481_VALMVLCETHR (UniProt Q96KQ7) | -0.000299 | -0.0784
14 | EHMT2_Q96KQ7_957_YISENCETSTMNIDR (UniProt Q96KQ7) | -0.21 | -0.0775
15 | EIF2B3_Q9NR50_379_SVIGSSCLIK (UniProt Q9NR50) | -0.00222 | 0.0328
16 | ECPAS_Q5VYK3_1364_LCELIR (UniProt Q5VYK3) | 0.0333 | 0.207
17 | EED_O75530_324+330_SCENAIVCWKPGK (UniProt O75530) | 0.00621 | -0.302
18 | EIF2B3_Q9NR50_300_CYVHIMK (UniProt Q9NR50) | -0.00138 | 0.109
19 | EFL1_Q7Z2Z2_831_CGPNILVNK (UniProt Q7Z2Z2) | -0.0761 | 0.083
20 | EHMT2_Q96KQ7_985_NITHLQHCTCVDDCSSSNCLCGQLSIR (UniProt Q96KQ7) | -0.354 | 0.359
21 | EEF1A1_P68104_363+370_GNVAGDSKNDPPMEAAGFTAQVIILNHPGQISAGYAPVLDCHTAHIACK (UniProt P68104) | -0.193 | -0.833
22 | ECPAS_Q5VYK3_1257_TIAALLPCLLDK (UniProt Q5VYK3) | -0.0296 | -0.187
23 | EGFL7_Q9UHF1_148_RGGCPQR (UniProt Q9UHF1) | -0.109 | -0.151
24 | EIF2S3_P41091_311_LMCKPIFSK (UniProt P41091) | -0.301 | -0.91
25 | ECHS1_P30084_62_ALNALCDGLIDELNQALK (UniProt P30084) | 0.209 | 0.177
26 | EIF2B4_Q9UI10_69_GAEPETGSAVSAAQCQVGPTR (UniProt Q9UI10) | -0.249 | -0.431
27 | EIF2B1_Q14232_218_IGTNQMAVCAK (UniProt Q14232) | -0.148 | -0.133

Reprinted: entries 15–16
Row | Target | probe-labelled cysteine peptide fold change (10 µM) | probe-labelled cysteine peptide fold change (50 µM)
15 | EIF2B3_Q9NR50_379_SVIGSSCLIK (UniProt Q9NR50) | -0.00222 | 0.0328
16 | ECPAS_Q5VYK3_1364_LCELIR (UniProt Q5VYK3) | 0.0333 | 0.207

An excerpt of these results, with tabs.
Row	Target	probe-labelled cysteine peptide fold change (10 µM)	probe-labelled cysteine peptide fold change (50 µM)
4	EEF2_P13639_651_IWCFGPDGTGPNILTDITK (UniProt P13639)	0.0628	0.112
10	EIF3A_Q14152_160_QCLDLLR (UniProt Q14152)	0.229	0.391

(continued)

Row | Target | probe-labelled cysteine peptide fold change (10 µM) | probe-labelled cysteine peptide fold change (50 µM)
28 | EGLN1_Q9GZT9_201_LALEYIVPCMNK (UniProt Q9GZT9) | -0.0652 | -0.18
29 | EIF2A_Q9BY44_80_AVCLEFSPK (UniProt Q9BY44) | -0.0376 | 0.0922
30 | EHMT1_Q9H9B1_627_VNNASYCPHCGEESSK (UniProt Q9H9B1) | 0.115 | 0.178
31 | EIF2S1_P05198_6_PGLSCR (UniProt P05198) | -0.121 | -0.205
32 | EIF2AK4_Q9P2K8_118_HCGEVMIFELAYHVQSFLSEHNKPPPK (UniProt Q9P2K8) | 0.0411 | 0.347
33 | EEF1A1_P68104_363_GNVAGDSKNDPPMEAAGFTAQVIILNHPGQISAGYAPVLDCHTAHIACK (UniProt P68104) | -0.147 | -0.574
34 | EEF1G_P26641_194_WFLTCINQPQFR (UniProt P26641) | -0.153 | 0.0663
35 | EFTUD2_Q15029_166_YDQDLCYTDILFTEQER (UniProt Q15029) | 0.0874 | -0.00969
36 | EHMT1_Q9H9B1_802_SPLHAAAEAGHVDICHMLVQAGANIDTCSEDQR (UniProt Q9H9B1) | 0.0504 | -0.286
37 | EEF2_P13639_369_CELLYEGPPDDEAAMGIK (UniProt P13639) | -0.0905 | -0.05
38 | EEF2_P13639_136_VTDGALVVVDCVSGVCVQTETVLR (UniProt P13639) | 0.332 | 0.221
39 | EDEM1_Q92611_95_RPGPGMCGPANWGYVLGGR (UniProt Q92611) | -0.0266 | -0.127
40 | EIF2B5_Q13144_414_VAAGAQIHQSLLCDNAEVK (UniProt Q13144) | -0.0816 | -0.131
41 | EIF2S2_P20042_305_LYFLQCETCHSR (UniProt P20042) | 0.194 | 0.583
42 | ECHS1_P30084_213_ICPVETLVEEAIQCAEK (UniProt P30084) | -0.0143 | 0.0446
43 | EEF1AKMT1_Q8WVE0_79_IACVSAPSVYQK (UniProt Q8WVE0) | -0.0796 | 0.0648
44 | EEF1A1_P68104_234_DGNASGTTLLEALDCILPPTRPTDKPLR (UniProt P68104) | -0.0294 | -0.384
45 | EEF1A1_P68104_370_NDPPMEAAGFTAQVIILNHPGQISAGYAPVLDCHTAHIACK (UniProt P68104) | 0.0417 | 0.113
46 | EHD4_Q9H223_141_FMCSQLPNQVLK (UniProt Q9H223) | -0.098 | 0.00663
47 | ECI2_O75521_282_ATFHTPFSHLGQSPEGCSSYTFPK (UniProt O75521) | 0.146 | 0.311
48 | EED_O75530_361_FDYSQCDIWYMR (UniProt O75530) | 0.106 | 0.468
49 | EEF2_P13639_557_SDPMVQCIIEESGEHIIAGAGELHLEICLK (UniProt P13639) | -0.0759 | -0.0904
50 | EEA1_Q15075_1402_VCDACFNDLQG (UniProt Q15075) | 0.0751 | -0.397
51 | EEF1D_P29692_247_KLQIQCVVEDDKVGTDLLEEEITK (UniProt P29692) | -0.0151 | -0.344
52 | EEF2_P13639_466_YVEPIEDVPCGNIVGLVGVDQFLVK (UniProt P13639) | -0.0177 | 0.135
53 | EHMT1_Q9H9B1_1111_LLPEFNMAEPPLIFECNHACSCWR (UniProt Q9H9B1) | 0.0188 | -0.282
54 | EGFL7_Q9UHF1_267+269_IDSLSEQISFLEEQLGSCSCK (UniProt Q9UHF1) | -0.134 | -0.716

Row | Target | probe-labelled cysteine peptide fold change (10 µM) | probe-labelled cysteine peptide fold change (50 µM)
55 | EIF2B4_Q9UI10_437_AHNVPVLVCCETYK (UniProt Q9UI10) | 0.0422 | -0.0207
56 | EIF2S1_P05198_98_VSPEEAIKCEDK (UniProt P05198) | -0.267 | -1.12
57 | ECPAS_Q5VYK3_386_TLSLQFVHHICITCPEIK (UniProt Q5VYK3) | -0.00947 | 0.329
58 | EEF1A1P5_Q5VTE0_363+370_NDPPMEAAGFTAQVIILNHPGQISAGYAPVLDCHMAHIACK (UniProt Q5VTE0) | -0.246 | -0.0248
59 | EFEMP1_Q12805_70_CVNHYGGYLCLPK (UniProt Q12805) | -0.483 | -0.253
60 | EIF2S1_P05198_70_NECVVVIRVDK (UniProt P05198) | -0.0302 | -0.409
61 | EED_O75530_126_VTLYECHSQGEIR (UniProt O75530) | 0.192 | 0.297
62 | EEF1A2_Q05639_370_SDPPQEAAQFTSQVIILNHPGQISAGYSPVIDCHTAHIACK (UniProt Q05639) | -0.0174 | -0.107
63 | EDC3_Q96F86_272_EFCTDSGLVVPSISYELHK (UniProt Q96F86) | 0.052 | -0.118
64 | EFL1_Q7Z2Z2_646_LLNQADPCVQILIQETGEHVLVTAGEVHLQR (UniProt Q7Z2Z2) | 0.119 | 0.0963
65 | EEF1A1P5_Q5VTE0_363+370_GNVAGDSKNDPPMEAAGFTAQVIILNHPGQISAGYAPVLDCHMAHIACK (UniProt Q5VTE0) | -0.198 | -1.24
66 | EFHD2_Q96C19_172_KAAAGELQEDSGLCVLAR (UniProt Q96C19) | -0.161 | -0.894
67 | EIF2S2_P20042_284_EYVTCHTCR (UniProt P20042) | 0.0206 | 0.0526
68 | ECT2_Q9H8V3_796_HVANTICK (UniProt Q9H8V3) | 0.0863 | -0.0487
69 | EFTUD2_Q15029_639_VEESGEHVILGTGELYLDCVMHDLR (UniProt Q15029) | 0.166 | 0.181
70 | EEF1A1_P68104_234_KDGNASGTTLLEALDCILPPTRPTDK (UniProt P68104) | -0.00051 | -0.0488
71 | EI24_O14681_24_DSIWGICTISK (UniProt O14681) | -0.0668 | -0.274
72 | EIF2AK4_Q9P2K8_1084_HGAVQLCTPLLLPR (UniProt Q9P2K8) | -0.104 | -0.582
73 | EIF2B1_Q14232_115_IADLCHTFIK (UniProt Q14232) | 0.0225 | 0.106
74 | ECM1_Q16610_426_VTPNLMGHLCGNQR (UniProt Q16610) | -0.117 | -0.0573
75 | ECI2_O75521_77_QATEGPCNMPKPGVFDLINK (UniProt O75521) | 0.0595 | -0.44
76 | EEFSEC_P57772_406_AGQATEGHCPR (UniProt P57772) | 0.493 | 0.392
77 | EDC4_Q6P2E9_1130_SCQAMFQQINDSFR (UniProt Q6P2E9) | 0.234 | 0.263
78 | EIF1AY_O14602_51_LEALCFDGVKR (UniProt O14602) | 0.0523 | -0.249
79 | EIF2A_Q9BY44_366_PVASDSTYFAWCPDGEHILTATCAPR (UniProt Q9BY44) | 0.0534 | 0.231
80 | EIF2B5_Q13144_196_CHEDNVVVAVDSTTNR (UniProt Q13144) | -0.0717 | -0.0586
